Assay results taken from US10618901B2 (GlaxoSmithKline Intellectual Property Development Limited, priority 2014, dated 2020).
Like-named read-outs stand apart in the source and are kept apart here. Some results were stated once for a whole list of compounds, not compound by compound.

Sequences of proteins named here, by UniProt entry; tags and fusion partners are left off. A change or cut given only in a name is not applied to a line headed by its entry.
UniProt Q5S007: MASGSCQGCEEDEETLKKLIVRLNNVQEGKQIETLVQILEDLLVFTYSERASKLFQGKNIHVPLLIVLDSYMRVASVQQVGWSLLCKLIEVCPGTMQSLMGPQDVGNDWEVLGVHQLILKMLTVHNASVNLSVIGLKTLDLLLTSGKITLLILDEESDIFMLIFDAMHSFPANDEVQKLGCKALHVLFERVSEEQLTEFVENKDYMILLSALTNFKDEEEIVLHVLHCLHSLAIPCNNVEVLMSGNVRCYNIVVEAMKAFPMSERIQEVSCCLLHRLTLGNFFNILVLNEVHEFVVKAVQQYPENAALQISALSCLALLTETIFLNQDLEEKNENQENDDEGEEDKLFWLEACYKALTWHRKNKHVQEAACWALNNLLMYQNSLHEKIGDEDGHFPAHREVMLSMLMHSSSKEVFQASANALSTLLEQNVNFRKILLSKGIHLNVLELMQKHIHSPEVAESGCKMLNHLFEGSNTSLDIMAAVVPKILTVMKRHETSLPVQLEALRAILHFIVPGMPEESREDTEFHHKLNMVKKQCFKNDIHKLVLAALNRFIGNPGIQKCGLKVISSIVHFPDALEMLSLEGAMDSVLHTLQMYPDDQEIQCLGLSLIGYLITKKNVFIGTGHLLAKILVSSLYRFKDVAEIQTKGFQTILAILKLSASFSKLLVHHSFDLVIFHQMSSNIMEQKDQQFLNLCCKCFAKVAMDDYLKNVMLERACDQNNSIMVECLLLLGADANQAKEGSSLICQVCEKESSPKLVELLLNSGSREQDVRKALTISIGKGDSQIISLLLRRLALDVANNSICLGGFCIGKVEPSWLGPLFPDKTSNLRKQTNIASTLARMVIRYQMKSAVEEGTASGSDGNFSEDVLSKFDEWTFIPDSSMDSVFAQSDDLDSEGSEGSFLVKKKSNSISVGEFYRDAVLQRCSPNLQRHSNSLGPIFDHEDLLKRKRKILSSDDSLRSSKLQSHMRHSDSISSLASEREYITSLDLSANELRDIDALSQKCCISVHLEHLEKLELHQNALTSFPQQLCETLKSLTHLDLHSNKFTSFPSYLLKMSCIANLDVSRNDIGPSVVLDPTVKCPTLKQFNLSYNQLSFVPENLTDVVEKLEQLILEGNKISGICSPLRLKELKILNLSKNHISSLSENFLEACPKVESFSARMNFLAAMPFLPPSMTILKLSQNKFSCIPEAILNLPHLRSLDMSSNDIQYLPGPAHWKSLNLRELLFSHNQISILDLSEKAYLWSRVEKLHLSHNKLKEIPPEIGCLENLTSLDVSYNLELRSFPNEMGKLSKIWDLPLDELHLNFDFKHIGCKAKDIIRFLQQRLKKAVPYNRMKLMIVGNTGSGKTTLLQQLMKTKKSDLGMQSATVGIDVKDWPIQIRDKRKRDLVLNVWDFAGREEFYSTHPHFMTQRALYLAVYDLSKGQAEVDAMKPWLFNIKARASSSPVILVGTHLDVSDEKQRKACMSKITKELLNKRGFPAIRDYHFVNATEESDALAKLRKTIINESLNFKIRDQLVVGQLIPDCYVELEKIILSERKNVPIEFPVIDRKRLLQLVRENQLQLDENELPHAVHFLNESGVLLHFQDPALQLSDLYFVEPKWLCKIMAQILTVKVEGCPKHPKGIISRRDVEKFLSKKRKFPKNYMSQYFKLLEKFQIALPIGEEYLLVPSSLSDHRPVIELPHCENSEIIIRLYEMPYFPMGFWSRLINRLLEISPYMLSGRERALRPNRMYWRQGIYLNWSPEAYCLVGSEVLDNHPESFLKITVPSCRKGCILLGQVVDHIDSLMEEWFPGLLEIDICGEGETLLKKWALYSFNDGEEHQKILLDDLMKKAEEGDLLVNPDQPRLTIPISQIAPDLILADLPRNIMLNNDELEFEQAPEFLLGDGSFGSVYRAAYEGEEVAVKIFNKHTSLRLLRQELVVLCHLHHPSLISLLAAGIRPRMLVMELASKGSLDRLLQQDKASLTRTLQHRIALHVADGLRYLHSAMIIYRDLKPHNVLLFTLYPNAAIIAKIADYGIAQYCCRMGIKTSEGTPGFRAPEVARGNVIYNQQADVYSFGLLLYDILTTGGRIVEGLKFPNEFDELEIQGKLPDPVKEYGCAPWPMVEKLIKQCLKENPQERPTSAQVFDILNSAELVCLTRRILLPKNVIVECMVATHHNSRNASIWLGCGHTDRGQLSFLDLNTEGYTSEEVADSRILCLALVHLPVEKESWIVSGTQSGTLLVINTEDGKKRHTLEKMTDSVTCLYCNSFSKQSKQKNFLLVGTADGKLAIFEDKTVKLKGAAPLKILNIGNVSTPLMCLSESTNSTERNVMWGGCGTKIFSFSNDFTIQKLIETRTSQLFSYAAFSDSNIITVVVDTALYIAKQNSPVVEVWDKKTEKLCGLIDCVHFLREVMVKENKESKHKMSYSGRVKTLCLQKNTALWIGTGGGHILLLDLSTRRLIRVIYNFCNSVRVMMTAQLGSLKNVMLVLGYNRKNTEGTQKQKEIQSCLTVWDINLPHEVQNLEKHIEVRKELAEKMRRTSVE

Target: T1, LRRK2 Ser935 phosphorylation in SH-SY5Y cells over-expressing recombinant full length LRRK2 (Homo sapiens, UniProt Q5S007)
T1 construct: A BacMam virus expressing full length recombinant LRRK2 was purchased from Invitrogen; host or cells: SH-SY5Y (BacMam transduction)
Assay: Recombinant cellular LRRK2 AlphaScreen assay
Format: cell-based
Procedure, shortened: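 SH-SY5Y cells transduced with BacMam full-length LRRK2 (MOI 50, 24 h) were treated with compound, top final 10 uM, for 60 min at 37° C. Lysates were assayed by AlphaScreen for pSer935 and total LRRK2. Dose-response fitted to a sigmoidal model.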

Compound: trans-2-(4-((4-ethoxy-7H-pyrrolo-[2,3-d]pyrimidin-2-yl)amino)-5-methyl-1H-pyrazol-1-yl)-cyclopentanol [Example E41]
- pIC50 in the recombinant cellular LRRK2 alphaScreen assay (text statement): ≥ 7.0
- pIC50 in the recombinant cellular LRRK2 alphaScreen assay (text statement, listed as Example E41): ≥ 5.0

Compound: CCOc1nc(Nc2cnn(CCF)c2C)nc2[nH]cc(C#N)c12 [Example E50, 4-ethoxy-2-((1-(2-fluoroethyl)-5-methyl-1H-pyrazol-4-yl)-amino)-7H-pyrrolo-[2,3-d]-pyrimidine-5-carbonitrile]
- pIC50 in the recombinant cellular LRRK2 alphaScreen assay: ≥ 5.0

Compound: CCOc1nc(Nc2cnn([C@@H]3CCN(C)C3)c2C)nc2[nH]cc(C#N)c12 [Example E51, (R)-4-ethoxy-2-((5-methyl-1-(1-methyl-pyrrolidin-3-yl)-1H-pyrazol-4-yl)-amino)-7H-pyrrolo-[2,3-d]pyrimidine-5-carbonitrile]
- pIC50 in the recombinant cellular LRRK2 alphaScreen assay: ≥ 5.0

Compound: CCOc1nc(Nc2cnn(C3CCN(C)C3)c2C)nc2[nH]ccc12 (single isomer, unassigned) [Example E14, 4-ethoxy-N-(5-methyl-1-(1-methylpyrrolidin-3-yl)-1H-pyrazol-4-yl)-7H-pyrrolo-[2,3-d]-pyrimidin-2-amine]
- pIC50 in the recombinant cellular LRRK2 alphaScreen assay (text statement, listed as Example E14): ≥ 5.0

Compound: CCOc1nc(Nc2cnn(C3CCC(O)C3)c2Cl)nc2[nH]ccc12 (racemic) [Example E101, (±)-trans-3-(5-chloro-4-((4-ethoxy-7H-pyrrolo[2,3-d]pyrimidin-2-yl)amino)-1H-pyrazol-1-yl) cyclopentanol]
- pIC50 in the recombinant cellular LRRK2 alphaScreen assay: ≥ 5.0

Compound: CCOc1nc(Nc2cnn(C3CC4CC4C3O)c2C2CC2)nc2[nH]ccc12 (single isomer, unassigned) [Example E71, 3-(5-cyclopropyl-4-((4-ethoxy-7H-pyrrolo-[2,3-d]pyrimidin-2-yl)amino)-1H-pyrazol-1-yl)bicyclo-[3.1.0]-hexan-2-ol]
- pIC50 in the recombinant cellular LRRK2 alphaScreen assay (text statement): ≥ 5.0

Compound: CCOc1nc(Nc2cnn(C3CCCC3(C)O)c2C2CC2)nc2[nH]ccc12 (single isomer, unassigned) [Example E79, trans-2-(5-cyclopropyl-4-((4-ethoxy-7H-pyrrolo-[2,3-d]pyrimidin-2-yl)amino)-1H-pyrazol-1-yl)-1-methylcyclopentanol]
- pIC50 in the recombinant cellular LRRK2 alphaScreen assay (text statement): ≥ 5.0

Compound: CCOc1nc(Nc2cnn(C3CNCCO3)c2Cl)nc2[nH]ccc12 (single isomer, unassigned) [Example E144, N-(5-chloro-1-(morpholin-2-yl)-1H-pyrazol-4-yl)-4-ethoxy-7H-pyrrolo[2,3-d]pyrimidin-2-amine]
- pIC50 in the recombinant cellular LRRK2 alphaScreen assay (text statement, listed as Example E144): ≥ 5.0

Compound: trans-4-ethoxy-N-(1-(3-fluoro-1-methylpiperidin-4-yl)-1H-pyrazol-4-yl)-7H-pyrrolo[2,3-d]pyrimidin-2-amine [Example E76]
- pIC50 in the recombinant cellular LRRK2 alphaScreen assay (text statement, listed as Example E76): ≥ 5.0

Compound: CCOc1nc(Nc2cnn(C3CCN(C4COC4)CC3(C)F)c2C)nc2[nH]ccc12 (single isomer, unassigned) [Example E138, (4-ethoxy-7H-pyrrolo[2,3-d]pyrimidin-2-yl)-[1-(3-fluoro-3-methyl-1-oxetan-3-yl-piperidin-4-yl)-5-methyl-1H-pyrazol-4-yl]-amine]
- pIC50 in the recombinant cellular LRRK2 alphaScreen assay (text statement, listed as Example E138): ≥ 5.0

Compound: CCOc1nc(Nc2cnn(C3CCN(C4COC4)C3)c2C)nc2[nH]ccc12 (centres unmarked) [Example E66, 4-Ethoxy-N-(5-methyl-1-(1-(oxetan-3-yl)pyrrolidin-3-yl)-1H-pyrazol-4-yl)-7H-pyrrolo[2,3-d]pyrimidin-2-amine]
- pIC50 in the recombinant cellular LRRK2 alphaScreen assay: ≥ 5.0

Compound: CCOc1nc(Nc2cnn(C3CCC(N4CCOCC4)CC3)c2Cl)nc2[nH]ccc12 (centres unmarked) [Example E149, N-(5-chloro-1-(4-morpholinocyclohexyl)-1H-pyrazol-4-yl)-4-ethoxy-7H-pyrrolo[2,3-d] pyrimidin-2-amine]
- pIC50 in the recombinant cellular LRRK2 alphaScreen assay: ≥ 5.0

Compound: CCOc1nc(Nc2cnn(C3CCN(C4COC4)CC3(F)F)c2C)nc2[nH]ccc12 (single isomer, unassigned) [Example E132, N-(1-(3,3-difluoro-1-(oxetan-3-yl)piperidin-4-yl)-5-methyl-1H-pyrazol-4-yl)-4-ethoxy-7H-pyrrolo[2,3-d]pyrimidin-2-amine]
- pIC50 in the recombinant cellular LRRK2 alphaScreen assay (text statement, listed as Example E132): ≥ 5.0

Compound: CCOc1nc(Nc2cnn(C3CCN(C4COC4)CC3F)c2CC)nc2[nH]ccc12 (single isomer, unassigned) [Example E129, (trans)-4-ethoxy-N-(5-ethyl-1-(3-fluoro-1-(oxetan-3-yl)piperidin-4-yl)-1H-pyrazol-4-yl)-7H-pyrrolo[2,3-d]pyrimidin-2-amine]
- pIC50 in the recombinant cellular LRRK2 alphaScreen assay (text statement, listed as Example E129): ≥ 5.0

Compound: CCOc1nc(Nc2cnn(C3CN(C4COC4)CCO3)c2Cl)nc2[nH]ccc12 (single isomer, unassigned) [Example E142, N-(5-chloro-1-(4-(oxetan-3-yl)morpholin-2-yl)-1H-pyrazol-4-yl)-4-ethoxy-7H-pyrrolo[2,3-d]pyrimidin-2-amine]
- pIC50 in the recombinant cellular LRRK2 alphaScreen assay (text statement, listed as Example E142): ≥ 5.0

Compound: CCOc1nc(Nc2cnn([C@H]3CCN(CC(F)F)C3)c2C)nc2[nH]ccc12 [Example E87, (S)—N-(1-(1-(2,2-difluoroethyl)pyrrolidin-3-yl)-5-methyl-1H-pyrazol-4-yl)-4-ethoxy-7H-pyrrolo[2,3-d]pyrimidin-2-amine]
- pIC50 in the recombinant cellular LRRK2 alphaScreen assay: ≥ 5.0
